# Data published in the supplement of paper PMC12067093, “Discovery and optimisation of a covalent ligand for TRIM25 and its application to targeted protein ubiquitination” (Chemical Science, 2025).
# Protein sequences, listed by entry. Tags and fused reporters are not part of them. Lines headed by an entry give the natural chain unless they say otherwise; changes in a name come on top.
# UniProt Q92599: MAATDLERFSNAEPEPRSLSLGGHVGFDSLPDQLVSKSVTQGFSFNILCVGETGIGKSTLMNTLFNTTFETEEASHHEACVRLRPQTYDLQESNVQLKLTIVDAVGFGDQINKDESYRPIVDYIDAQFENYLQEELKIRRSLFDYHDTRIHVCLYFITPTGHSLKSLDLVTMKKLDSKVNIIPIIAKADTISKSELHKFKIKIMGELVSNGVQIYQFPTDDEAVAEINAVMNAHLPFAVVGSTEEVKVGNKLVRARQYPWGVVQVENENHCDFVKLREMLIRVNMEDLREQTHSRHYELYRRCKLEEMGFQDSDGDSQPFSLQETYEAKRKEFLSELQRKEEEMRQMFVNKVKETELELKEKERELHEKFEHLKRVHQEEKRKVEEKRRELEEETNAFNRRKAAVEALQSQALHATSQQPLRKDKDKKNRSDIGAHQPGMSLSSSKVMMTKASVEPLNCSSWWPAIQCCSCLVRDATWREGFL
# UniProt P53007, whole entry, looked up: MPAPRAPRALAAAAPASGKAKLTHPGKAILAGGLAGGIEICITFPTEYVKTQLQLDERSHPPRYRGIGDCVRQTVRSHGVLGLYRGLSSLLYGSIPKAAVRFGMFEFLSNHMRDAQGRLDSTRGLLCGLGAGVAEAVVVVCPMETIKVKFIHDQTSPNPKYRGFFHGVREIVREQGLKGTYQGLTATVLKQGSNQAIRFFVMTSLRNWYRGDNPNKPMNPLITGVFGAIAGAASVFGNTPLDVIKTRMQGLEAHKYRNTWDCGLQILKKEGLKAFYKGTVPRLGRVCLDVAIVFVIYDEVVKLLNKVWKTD
# UniProt O75533, whole entry, looked up: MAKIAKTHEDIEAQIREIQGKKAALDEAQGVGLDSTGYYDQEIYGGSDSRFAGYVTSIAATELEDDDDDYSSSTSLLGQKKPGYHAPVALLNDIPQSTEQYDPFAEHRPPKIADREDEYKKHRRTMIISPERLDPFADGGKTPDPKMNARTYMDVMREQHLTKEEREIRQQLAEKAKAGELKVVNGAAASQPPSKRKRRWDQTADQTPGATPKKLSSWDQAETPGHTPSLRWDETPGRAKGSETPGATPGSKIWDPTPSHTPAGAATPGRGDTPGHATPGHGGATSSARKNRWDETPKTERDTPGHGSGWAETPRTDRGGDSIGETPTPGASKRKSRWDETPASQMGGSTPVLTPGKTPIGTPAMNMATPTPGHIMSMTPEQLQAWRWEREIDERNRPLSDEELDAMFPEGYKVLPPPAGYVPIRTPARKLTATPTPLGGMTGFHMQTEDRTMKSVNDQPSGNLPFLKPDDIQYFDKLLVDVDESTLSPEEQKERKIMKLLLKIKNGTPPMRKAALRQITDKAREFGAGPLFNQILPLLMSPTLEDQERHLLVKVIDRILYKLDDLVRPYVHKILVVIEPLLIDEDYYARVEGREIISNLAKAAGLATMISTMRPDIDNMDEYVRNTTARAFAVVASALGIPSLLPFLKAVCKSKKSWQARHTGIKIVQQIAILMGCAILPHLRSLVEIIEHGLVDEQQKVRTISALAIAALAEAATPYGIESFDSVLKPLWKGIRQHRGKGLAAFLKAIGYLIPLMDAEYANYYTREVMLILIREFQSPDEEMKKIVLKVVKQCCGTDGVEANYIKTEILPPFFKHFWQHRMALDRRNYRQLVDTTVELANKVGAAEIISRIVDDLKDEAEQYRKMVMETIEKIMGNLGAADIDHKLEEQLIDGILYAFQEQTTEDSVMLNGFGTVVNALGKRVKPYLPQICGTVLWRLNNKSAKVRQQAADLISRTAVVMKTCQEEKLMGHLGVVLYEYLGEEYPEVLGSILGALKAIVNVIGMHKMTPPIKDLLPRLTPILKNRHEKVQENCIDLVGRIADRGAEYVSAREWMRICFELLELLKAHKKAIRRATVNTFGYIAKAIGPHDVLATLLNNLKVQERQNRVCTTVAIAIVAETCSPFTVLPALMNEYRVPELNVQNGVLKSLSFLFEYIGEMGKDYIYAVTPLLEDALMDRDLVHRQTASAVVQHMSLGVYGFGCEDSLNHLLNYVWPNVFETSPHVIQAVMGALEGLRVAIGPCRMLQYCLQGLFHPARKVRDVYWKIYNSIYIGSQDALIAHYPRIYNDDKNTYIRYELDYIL
# UniProt Q9UPS6, whole entry, looked up: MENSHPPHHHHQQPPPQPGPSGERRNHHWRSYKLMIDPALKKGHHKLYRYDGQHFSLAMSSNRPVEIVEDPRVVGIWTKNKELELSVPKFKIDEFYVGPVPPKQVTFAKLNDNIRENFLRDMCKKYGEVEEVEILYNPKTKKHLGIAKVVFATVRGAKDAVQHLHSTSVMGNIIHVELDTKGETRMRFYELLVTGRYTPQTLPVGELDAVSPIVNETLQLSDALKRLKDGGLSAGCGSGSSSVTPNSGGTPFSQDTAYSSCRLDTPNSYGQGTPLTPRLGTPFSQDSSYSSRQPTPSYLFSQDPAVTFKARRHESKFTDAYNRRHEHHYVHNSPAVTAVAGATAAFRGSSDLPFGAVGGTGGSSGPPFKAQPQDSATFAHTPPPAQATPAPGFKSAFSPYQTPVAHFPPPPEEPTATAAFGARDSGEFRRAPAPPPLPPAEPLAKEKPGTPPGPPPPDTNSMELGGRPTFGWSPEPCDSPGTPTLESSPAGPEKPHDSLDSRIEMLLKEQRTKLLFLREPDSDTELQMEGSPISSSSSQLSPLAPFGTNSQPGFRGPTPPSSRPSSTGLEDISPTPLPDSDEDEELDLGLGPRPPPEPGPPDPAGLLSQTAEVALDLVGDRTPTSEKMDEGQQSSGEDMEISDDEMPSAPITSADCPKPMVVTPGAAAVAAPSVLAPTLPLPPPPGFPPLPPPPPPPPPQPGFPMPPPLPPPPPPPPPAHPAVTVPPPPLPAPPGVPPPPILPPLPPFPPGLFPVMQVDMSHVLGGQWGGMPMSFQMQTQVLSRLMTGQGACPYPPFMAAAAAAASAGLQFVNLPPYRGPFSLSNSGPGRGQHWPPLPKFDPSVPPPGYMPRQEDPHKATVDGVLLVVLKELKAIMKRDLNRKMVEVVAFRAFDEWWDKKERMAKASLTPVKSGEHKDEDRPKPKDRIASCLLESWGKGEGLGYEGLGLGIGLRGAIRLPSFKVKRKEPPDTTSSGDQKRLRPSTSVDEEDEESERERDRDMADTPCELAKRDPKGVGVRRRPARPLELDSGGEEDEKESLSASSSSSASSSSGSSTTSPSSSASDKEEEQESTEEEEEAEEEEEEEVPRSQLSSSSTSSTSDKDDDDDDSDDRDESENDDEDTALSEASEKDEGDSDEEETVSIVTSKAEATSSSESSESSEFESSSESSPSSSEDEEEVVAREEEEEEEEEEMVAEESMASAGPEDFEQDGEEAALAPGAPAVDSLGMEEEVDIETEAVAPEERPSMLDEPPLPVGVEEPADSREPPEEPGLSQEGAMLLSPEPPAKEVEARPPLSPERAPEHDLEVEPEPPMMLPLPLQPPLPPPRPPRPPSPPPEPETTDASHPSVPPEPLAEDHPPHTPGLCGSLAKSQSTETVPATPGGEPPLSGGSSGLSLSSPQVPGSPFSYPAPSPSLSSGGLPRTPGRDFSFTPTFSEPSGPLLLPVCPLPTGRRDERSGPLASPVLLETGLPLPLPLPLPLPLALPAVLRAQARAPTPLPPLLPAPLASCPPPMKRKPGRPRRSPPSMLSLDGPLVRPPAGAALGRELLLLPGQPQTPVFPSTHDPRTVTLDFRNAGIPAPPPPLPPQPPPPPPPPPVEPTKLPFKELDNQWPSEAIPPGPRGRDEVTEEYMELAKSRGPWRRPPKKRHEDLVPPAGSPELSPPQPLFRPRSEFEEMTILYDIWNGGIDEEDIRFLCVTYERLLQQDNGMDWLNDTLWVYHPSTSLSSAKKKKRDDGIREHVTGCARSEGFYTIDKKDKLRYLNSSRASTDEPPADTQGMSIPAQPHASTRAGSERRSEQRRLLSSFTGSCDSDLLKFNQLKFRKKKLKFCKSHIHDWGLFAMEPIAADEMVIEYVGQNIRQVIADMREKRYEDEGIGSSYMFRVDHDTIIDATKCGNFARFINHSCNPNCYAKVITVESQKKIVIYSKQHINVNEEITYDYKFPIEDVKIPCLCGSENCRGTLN
# UniProt Q149N8: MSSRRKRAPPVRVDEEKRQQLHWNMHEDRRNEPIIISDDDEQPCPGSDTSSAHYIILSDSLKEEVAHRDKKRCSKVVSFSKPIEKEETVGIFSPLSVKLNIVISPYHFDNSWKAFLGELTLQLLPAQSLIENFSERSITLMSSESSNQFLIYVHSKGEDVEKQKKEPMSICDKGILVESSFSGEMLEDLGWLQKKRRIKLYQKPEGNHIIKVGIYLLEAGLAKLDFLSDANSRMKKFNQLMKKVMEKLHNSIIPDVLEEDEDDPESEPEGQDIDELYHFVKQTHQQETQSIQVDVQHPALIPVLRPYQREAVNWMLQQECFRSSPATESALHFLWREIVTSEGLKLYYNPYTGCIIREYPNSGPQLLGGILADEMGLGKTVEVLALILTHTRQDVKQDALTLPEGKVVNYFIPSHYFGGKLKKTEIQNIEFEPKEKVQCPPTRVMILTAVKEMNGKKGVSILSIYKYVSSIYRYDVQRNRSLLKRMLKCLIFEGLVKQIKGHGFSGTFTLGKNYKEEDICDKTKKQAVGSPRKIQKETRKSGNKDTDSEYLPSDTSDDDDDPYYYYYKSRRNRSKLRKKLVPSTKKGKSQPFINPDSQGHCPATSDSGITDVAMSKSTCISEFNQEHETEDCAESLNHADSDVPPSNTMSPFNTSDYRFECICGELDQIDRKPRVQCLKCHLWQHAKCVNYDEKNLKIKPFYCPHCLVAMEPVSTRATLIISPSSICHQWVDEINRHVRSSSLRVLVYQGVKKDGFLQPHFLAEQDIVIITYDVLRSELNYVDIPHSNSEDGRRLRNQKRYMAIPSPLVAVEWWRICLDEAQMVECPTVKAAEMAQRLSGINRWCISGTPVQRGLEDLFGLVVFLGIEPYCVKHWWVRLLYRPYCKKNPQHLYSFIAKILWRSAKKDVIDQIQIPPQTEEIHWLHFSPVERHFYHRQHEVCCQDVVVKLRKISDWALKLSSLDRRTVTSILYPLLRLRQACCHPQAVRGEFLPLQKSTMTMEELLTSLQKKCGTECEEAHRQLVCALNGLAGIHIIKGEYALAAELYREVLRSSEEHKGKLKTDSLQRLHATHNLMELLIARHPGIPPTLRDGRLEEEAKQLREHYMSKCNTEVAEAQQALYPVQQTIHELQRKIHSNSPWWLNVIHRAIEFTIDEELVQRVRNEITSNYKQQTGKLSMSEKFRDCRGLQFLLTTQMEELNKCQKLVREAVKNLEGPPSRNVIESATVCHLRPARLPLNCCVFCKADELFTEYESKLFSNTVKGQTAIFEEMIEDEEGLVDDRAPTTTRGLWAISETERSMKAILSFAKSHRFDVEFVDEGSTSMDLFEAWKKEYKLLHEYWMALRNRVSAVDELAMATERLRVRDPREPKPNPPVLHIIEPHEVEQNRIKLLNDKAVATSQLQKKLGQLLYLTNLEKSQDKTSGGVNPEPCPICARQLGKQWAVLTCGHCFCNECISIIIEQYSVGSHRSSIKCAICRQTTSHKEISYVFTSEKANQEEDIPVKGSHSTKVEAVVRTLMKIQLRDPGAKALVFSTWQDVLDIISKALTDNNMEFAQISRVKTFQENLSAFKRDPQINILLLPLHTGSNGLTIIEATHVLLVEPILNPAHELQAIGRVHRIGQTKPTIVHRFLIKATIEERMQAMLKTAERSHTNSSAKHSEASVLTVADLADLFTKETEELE
# UniProt Q99961: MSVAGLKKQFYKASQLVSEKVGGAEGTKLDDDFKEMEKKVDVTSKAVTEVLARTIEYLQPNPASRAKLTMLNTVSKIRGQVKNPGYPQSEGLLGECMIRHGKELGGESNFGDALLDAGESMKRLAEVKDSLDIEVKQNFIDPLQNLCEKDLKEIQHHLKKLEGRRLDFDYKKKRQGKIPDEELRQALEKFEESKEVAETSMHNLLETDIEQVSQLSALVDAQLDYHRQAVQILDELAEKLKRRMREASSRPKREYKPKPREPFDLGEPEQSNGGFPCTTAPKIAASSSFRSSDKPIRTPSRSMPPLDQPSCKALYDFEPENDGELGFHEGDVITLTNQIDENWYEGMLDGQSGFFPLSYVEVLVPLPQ
# UniProt P50452: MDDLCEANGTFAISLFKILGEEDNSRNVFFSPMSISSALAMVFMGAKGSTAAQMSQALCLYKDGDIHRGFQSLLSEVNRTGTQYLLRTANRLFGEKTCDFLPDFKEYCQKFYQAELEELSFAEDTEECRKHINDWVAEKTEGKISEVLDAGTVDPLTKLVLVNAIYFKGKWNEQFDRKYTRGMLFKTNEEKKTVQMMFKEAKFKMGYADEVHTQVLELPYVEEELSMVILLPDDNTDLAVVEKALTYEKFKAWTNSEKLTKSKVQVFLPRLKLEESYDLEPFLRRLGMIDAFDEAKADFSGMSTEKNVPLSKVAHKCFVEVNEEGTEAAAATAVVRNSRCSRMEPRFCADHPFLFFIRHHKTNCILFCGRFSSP
# This is one part of the list.
# Compound: Cc1cc(ccc1-c1ccccc1)C(=O)N1CCCN(CC1)C(=O)CCl [compound 10]
# Assay: probe-labelled cysteine peptide fold change vs DMSO (competition) (log2 fold change); higher = less target engagement (more negative = stronger competition)
# Conditions: THP-1, incubation time: 4 h
# 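Also: competitive profiling in live THP-1 cells: cysteine peptides tagged with an iodoacetamide desthiobiotin (IA-DTB) probe, intensity after compound treatment relative to DMSO-treated cells.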
Target,probe-labelled cysteine peptide fold change (10 µM),probe-labelled cysteine peptide fold change (50 µM)
SEPT8_Q92599_49_SVTQGFSFNILCVGETGIGK (UniProt Q92599),0.0289,0.327
SLC27A1_Q6PCB7_204_FCSGDLGPEGILPDTHLLDPLLK (UniProt Q6PCB7),0.285,0.102
SHMT1_P34896_68_AVLEALGSCLNNK (UniProt P34896),0.0819,0.0484
SLC25A28_Q96A46_49_GAGGGEAGACRPPVR (UniProt Q96A46),-0.368,-0.406
SFPQ_P23246_431_CSEGVFLLTTTPR (UniProt P23246),0.045,0.253
SHMT1_P34896_248_IADENGAYLMADMAHISGLVAAGVVPSPFEHCHVVTTTTHK (UniProt P34896),-0.227,-0.34
SERGEF_Q9UGK8_73_ITGGGGHSAVVTDGGDLFVCGLNK (UniProt Q9UGK8),0.122,-0.0198
SLC25A19_Q9HC21_222_KNENLQNLLCGSGAGVISK (UniProt Q9HC21),-0.299,0.0602
SERPINF2_P08697_152_LCQDLGPGAFR (UniProt P08697),-0.277,-0.584
SGO1_Q5FBB7_44_SFIAAPCQIITNTSTLLK (UniProt Q5FBB7),0.276,-0.542
SLC12A9_Q9BXP2_911_DLGPTLLVHGVTPVTCTDL (UniProt Q9BXP2),0.0705,-0.0868
SEPT8_Q92599_80_STLMNTLFNTTFETEEASHHEACVR (UniProt Q92599),-0.0355,-0.0172
SLC25A1_P53007_141_GLLCGLGAGVAEAVVVVCPMETIK (UniProt P53007),0.166,0.0975
SF3B1_O75533_1035_VQENCIDLVGR (UniProt O75533),-0.0527,-0.166
SHCBP1_Q8NEM2_254_LHYDILEDRVPSGLIVDYHNLLSQCEESYR (UniProt Q8NEM2),0.0596,0.17
SFXN2_Q96NB2_189_WVPFAAVAAANCVNIPMMR (UniProt Q96NB2),-0.0553,0.123
SIL1_Q9H173_408_VLQTLGVLLTTCR (UniProt Q9H173),0.427,0.362
SGTA_O43765_153_AICIDPAYSK (UniProt O43765),0.119,-0.316
SLC25A5_P05141_257_KGTDIMYTGTLDCWR (UniProt P05141),-0.111,-0.203

Target,probe-labelled cysteine peptide fold change (10 µM),probe-labelled cysteine peptide fold change (50 µM)
SETD1B_Q9UPS6_1746_EHVTGCAR (UniProt Q9UPS6),-0.0461,0.0454
SHPRH_Q149N8_1229_NVIESATVCHLRPAR (UniProt Q149N8),0.0933,0.273
SETX_Q7Z333_1368_LSDCESTDVKR (UniProt Q7Z333),-0.274,-0.786
SLC17A5_Q9NRA2_83_ACPEHSAPIK (UniProt Q9NRA2),-0.0974,0.078
SIN3B_O75182_1138_TLCETVHVHGLPVTR (UniProt O75182),-0.165,0.0678
SF3A3_Q12874_408+411_LHGLNINYNCEICGNYTYR (UniProt Q12874),0.113,-0.0346
SFMBT2_Q5VUG0_511_KIPHDLCLFPHLDTTGTVNGK (UniProt Q5VUG0),-0.167,-0.164
SEPT9_Q9UHD8_410+411_VHCCLYFIPATGHSLRPLDIEFMK (UniProt Q9UHD8),-0.00614,-0.119
SIMC1_Q8NDZ2_603_QHLQQSIANMVLSCDK (UniProt Q8NDZ2),-0.25,-0.542
SETD1B_Q9UPS6_1908+1912_FINHSCNPNCYAK (UniProt Q9UPS6),0.118,-0.0843
SF3B1_O75533_1250_MLQYCLQGLFHPAR (UniProt O75533),0.00594,0.056
SKAP2_O75563_186_DCCFEISAPDK (UniProt O75563),0.0418,0.334
SETDB1_Q15047_1207_QFYDGEESCYIIDAK (UniProt Q15047),0.0273,0.05
SH3GL1_Q99961_96_NPGYPQSEGLLGECMIR (UniProt Q99961),-0.0179,-0.241
SERPINB8_P50452_59_GSTAAQMSQALCLYK (UniProt P50452),0.114,0.448
SLC25A1_P53007_262_NTWDCGLQILKK (UniProt P53007),-0.0324,-0.567
SLC1A5_Q15758_39_GLAAAEPTANGGLALASIEDQGAAAGGYCGSR (UniProt Q15758),-0.33,0.0468
SFSWAP_Q12872_307_CNRLEELMK (UniProt Q12872),-0.382,-1.12

# Given with bars between the fields: part of the list above
Target | probe-labelled cysteine peptide fold change (10 µM) | probe-labelled cysteine peptide fold change (50 µM)
SH3GL1_Q99961_96_NPGYPQSEGLLGECMIR (UniProt Q99961) | -0.0179 | -0.241
SERPINB8_P50452_59_GSTAAQMSQALCLYK (UniProt P50452) | 0.114 | 0.448
